The nature of the data set: Anti-His western blot of xylose isomerase constructs expressed in S. cerevisiae. Particulars: His-tagged constructs in p426GPD, S. cerevisiae BY4742. Details: species or system Saccharomyces cerevisiae.

B1: Ruminococcus xylose isomerase: native xylose isomerase from Ruminococcus flavefaciens strain 17, SEQ ID NO: 31 (protein, listed as Ruminococcus flavefaciens)
chain: MEFFSNIGKIQYQGPKSTDPLSFKYYNPEEVINGKTMREHLKFALSWWHTMGGDGTDMFGCGTTDKTWGQSDPAARAKAKVDAAFEIMDKLSIDYYCFHDRDLSPEYGSLKATNDQLDIVTDYIKEKQGDKFKCLWGTAKCFDHPRFMHGAGTSPSADVFAFSAAQIKKALESTVKLGGNGYVFWGGREGYETLLNTNMGLELDNMARLMKMAVEYGRSIGFKGDFYIEPKPKEPTKHQYDFDTATVLGFLRKYGLDKDFKMNIEANHATLAQHTFQHELRVARDNGVFGSIDANQGDVLLGWDTDQFPTNIYDTTMCMYEVIKAGGFTNGGLNFDAKARRGSFTPEDIFYSYIAGMDAFALGFRAALKLIEDGRIDKFVADRYASWNTGIGADIIAGKADFASLEKYALEKGEVTASLSSGRQEMLESIVNNVLFSL
B1: the “expression of xylose isomerase in yeast cells (western)” value is “expressed in both the soluble and insoluble fractions”. In addition, the “expression of xylose isomerase in yeast cells (western)” value (listed as wild type R. flavefaciens xylose isomerase) is given as “expressed in the soluble fraction”.

The record behind these values is patent US20120184020A1, “ENGINEERED MICROORGANISMS WITH ENHANCED FERMENTATION ACTIVITY” (Verdezyne, Inc., priority 2009, published 2012).
